# Some of the results follow.
# B1: Blon0732mut (Bifidobacterium longum) (protein)
# chain: MPTSEHKADDATRHLTLIPAPVTLEYTHGTALIGPLVTIEDADQSWETLPIEQLSDELRHRYGVTVLRRRTHGTVISLGLDSRLAHDEYTLDVSESEGIRVRGGGESGLRYGLQTLRQIIGQTSRAIPCLHIQDKPAFAVRAYSLDVTRGRVPTMEFLTWFVDQLALYKYNQFQLYVEHAFAFVELSEAWRGTDPLTAADITYLDEYCARRGIELVPSLATFGHMYMNLRTREHRGLGEFPEDADRPFSFIERMEHHTLNAADPKAHDFASRLIEEYAPLFRSKSFNIGGNETFDLGRGRSAQDAPEAGRDELYAGFVRDLCETLARHGRQPMLWADIALESPRTMDLLPGDITMLNWMYEPQIDESKIQTIATQGRRQFVCPAVRAWSRFFPDYAGAWLNTYHMALAGTKYDAEGMVVTDWGDYGHVNDPRLSVPGLCYGAQNAWNPIEIDAHEMNRRISALVYGDESGRIMDCLARIDSDGVSFPWDLAVQVLELEYGSGTGALNMDVAACMERSSGGKLTLDRTLGCDDARRRMLQWNRERIERRRDCDQVLRDCGDAFAGLDKGGLTAEFLSVMLDGQRLFNELGEELLALADGKDVGSGANRLAADLELWFERYRAQWLSVGRHAELARIAHVVWSLADILRRGAL
# Experiments:
# Assay in all cases: glycan array binding signal (z-score within array); higher = stronger binding
# Details in all cases: glycan notation: IUPAC condensed, linker removed
# [1] = molecular target: Fuc(a1-3)[Gal(b1-4)]Glc6S
# Summary of the method: (§1)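 The binding signal is a Z-score computed within each array and averaged over linkers. Arrays of the same protein sequence at different concentrations or buffers were also averaged together. Data originate from 3228 arrays in the Consortium for Functional Glycomics database, kept only where the protein sequence was available.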
# [2] = molecular target: Fuc(a1-3)[Gal(b1-4)]GlcNAc
# Summary of the method: as §1
# [3] = molecular target: Fuc(a1-3)[Gal(b1-4)]GlcNAc(b1-2)Man
# Summary of the method: as §1
# [4] = molecular target: Fuc(a1-3)[Gal(b1-4)]GlcNAc(b1-2)Man(a1-3)[Fuc(a1-3)[Gal(b1-4)]GlcNAc(b1-2)Man(a1-6)]Man(b1-4)GlcNAc(b1-4)GlcNAc
# Summary of the method: as §1
# [5] = molecular target: Fuc(a1-3)[Gal(b1-4)]GlcNAc(b1-2)Man(a1-3)[Fuc(a1-3)[Gal(b1-4)]GlcNAc(b1-2)Man(a1-6)]Man(b1-4)GlcNAc(b1-4)[Fuc(a1-6)]GlcNAc
# Summary of the method: as §1
# [6] = molecular target: Fuc(a1-3)[Gal(b1-4)]GlcNAc(b1-3)Gal(b1-3)[Fuc(a1-4)]GlcNAc
# Summary of the method: as §1
# [7] = molecular target: Fuc(a1-3)[Gal(b1-4)]GlcNAc(b1-3)GalNAc
# Summary of the method: as §1
# [8] = molecular target: Fuc(a1-3)[Gal(b1-4)]GlcNAc(b1-4)Gal(b1-4)[Fuc(a1-3)]GlcNAc
# Summary of the method: as §1
# [9] = molecular target: Fuc(a1-3)[Gal(b1-4)]GlcNAc(b1-4)Gal(b1-4)[Fuc(a1-3)]GlcNAc(b1-4)Gal(b1-4)[Fuc(a1-3)]GlcNAc
# Summary of the method: as §1
# [10] = molecular target: Fuc(a1-3)[Gal(b1-4)]GlcNAc(b1-6)GalNAc
# Summary of the method: as §1
# [11] = molecular target: Fuc(a1-3)[Gal(b1-4)]GlcNAc(b1-6)[Gal(b1-3)GlcNAc(b1-3)]Gal(b1-4)Glc
# Summary of the method: as §1
# [12] = molecular target: Fuc(a1-3)[Gal(b1-4)]GlcNAc6S
# Summary of the method: as §1
# [13] = molecular target: Fuc(a1-3)[Gal3S(b1-4)]Glc
# Summary of the method: as §1
# [14] = molecular target: Fuc(a1-3)[Gal3S(b1-4)]GlcNAc
# Summary of the method: as §1
# [15] = molecular target: Fuc(a1-3)[Gal3S(b1-4)]GlcNAc6S
# Summary of the method: as §1
# [16] = molecular target: Fuc(a1-3)[GalNAc(b1-4)]GlcNAc
# Summary of the method: as §1
# [17] = molecular target: Fuc(a1-3)[GalNAc(b1-4)]GlcNAc6S
# Summary of the method: as §1
# Fuc(a1-4)GlcNAc = molecular target: Fuc(a1-4)GlcNAc
# Summary of the method: as §1
# Fuc(b1-3)GlcNAc = molecular target: Fuc(b1-3)GlcNAc
# Summary of the method: as §1
# Gal(a1-2)Gal = molecular target: Gal(a1-2)Gal
# Summary of the method: as §1
# Gal(a1-3)Gal = molecular target: Gal(a1-3)Gal
# Summary of the method: as §1
# Gal(a1-3)Gal(b1-3)GlcNAc = molecular target: Gal(a1-3)Gal(b1-3)GlcNAc
# Summary of the method: as §1
# [18] = molecular target: Gal(a1-3)Gal(b1-3)GlcNAc(b1-2)Man
# Summary of the method: as §1
# [19] = molecular target: Gal(a1-3)Gal(b1-3)GlcNAc(b1-2)Man(a1-3)[Gal(a1-3)Gal(b1-3)GlcNAc(b1-2)Man(a1-6)]Man(b1-4)GlcNAc(b1-4)GlcNAc
# Summary of the method: as §1
# [20] = molecular target: Gal(a1-3)Gal(b1-3)GlcNAc(b1-3)GalNAc
# Summary of the method: as §1
# [21] = molecular target: Gal(a1-3)Gal(b1-3)GlcNAc(b1-6)GalNAc
# Summary of the method: as §1
# [22] = molecular target: Gal(a1-3)Gal(b1-3)[Fuc(a1-4)]GlcNAc(b1-2)Man(a1-3)[Gal(a1-3)Gal(b1-3)[Fuc(a1-4)]GlcNAc(b1-2)Man(a1-6)]Man(b1-4)GlcNAc(b1-4)GlcNAc
# Summary of the method: as §1
# Gal(a1-3)Gal(b1-4)Glc = molecular target: Gal(a1-3)Gal(b1-4)Glc
# Summary of the method: as §1
# Gal(a1-3)Gal(b1-4)GlcNAc = molecular target: Gal(a1-3)Gal(b1-4)GlcNAc
# Summary of the method: as §1
# [23] = molecular target: Gal(a1-3)Gal(b1-4)GlcNAc(b1-2)Man
# Summary of the method: as §1
binder,measurement,setting,value
B1,glycan array binding signal (z-score),[1],0.149
same,glycan array binding signal (z-score),[2],-0.227
same,glycan array binding signal (z-score),[3],0.245
same,glycan array binding signal (z-score),[4],1.12
same,glycan array binding signal (z-score),[5],-0.597
same,glycan array binding signal (z-score),[6],-0.679
same,glycan array binding signal (z-score),[7],0.249
same,glycan array binding signal (z-score),[8],-0.424
same,glycan array binding signal (z-score),[9],-0.037
same,glycan array binding signal (z-score),[10],1.4
same,glycan array binding signal (z-score),[11],-1.19
same,glycan array binding signal (z-score),[12],0.003
same,glycan array binding signal (z-score),[13],0.203
same,glycan array binding signal (z-score),[14],-0.792
same,glycan array binding signal (z-score),[15],-0.391
same,glycan array binding signal (z-score),[16],1.89
same,glycan array binding signal (z-score),[17],-0.444
same,glycan array binding signal (z-score),Fuc(a1-4)GlcNAc,-0.304
same,glycan array binding signal (z-score),Fuc(b1-3)GlcNAc,-0.285
same,glycan array binding signal (z-score),Gal(a1-2)Gal,-0.299
same,glycan array binding signal (z-score),Gal(a1-3)Gal,0.305
same,glycan array binding signal (z-score),Gal(a1-3)Gal(b1-3)GlcNAc,-0.787
same,glycan array binding signal (z-score),[18],-1.26
same,glycan array binding signal (z-score),[19],0.42
same,glycan array binding signal (z-score),[20],0.447
same,glycan array binding signal (z-score),[21],-0.309
same,glycan array binding signal (z-score),[22],-0.11
same,glycan array binding signal (z-score),Gal(a1-3)Gal(b1-4)Glc,0.782
same,glycan array binding signal (z-score),Gal(a1-3)Gal(b1-4)GlcNAc,-1.07
same,glycan array binding signal (z-score),[23],-0.505

# As a short view, part of the list above:
binder,measurement,setting,value
B1,glycan array binding signal (z-score),[7],0.249
same,glycan array binding signal (z-score),[8],-0.424

# Source: the supplement of paper PMC8728848
